The results are deposited in PubChem (AID504749; NCATS, 2011).

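Malaria parasite (P. falciparum) lines kept in red blood cells; parasite DNA is measured by SYBR Green fluorescence after lysis, 72 h after compound addition. Each compound was titrated across a series from about 0.000037 to 29 µM. The number is the fitted AC50, the concentration giving a half-maximal change in signal; a lower value means higher potency, whether the curve shows a decrease or an increase. Calls follow the curve class and fit quality: every row here is inconclusive, covering signal-raising curves and weak, poorly fitted, partial or highest-dose-only inhibition curves.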

Values are in µM. Every entry below has the call inconclusive. These entries are mostly ones the record files as inconclusive; other results of the assay are not listed here. A potency from a partial, single-point or poor curve is only a rough figure. The first word of each remark tells which way the curve ran; it can be opposite to the aim of the assay.

{"compound": "CCN[C@@H]1CN(CCCOC)S(=O)(=O)c2sc(S(N)(=O)=O)cc21", "tested on / at": "P94_40", "potency (µM)": "3.981", "curve as filed": "inhibitor, partial curve"}
{"compound": "CCOC(=O)c1cc(-c2ccccc2)nc2ccc(C)cc12", "tested on / at": "TAB113", "potency (µM)": "3.162", "curve as filed": "inhibitor, single point"}
{"compound": "COc1cccc(CCc2ccccc2OCC(CN(C)C)OC(=O)CCC(=O)O)c1", "stereo": "stereo not drawn", "tested on / at": "CP266", "potency (µM)": "6.012", "curve as filed": "inhibitor, partial curve, poor fit"}
{"compound": "COc1cccc(CCc2ccccc2OCC(CN(C)C)OC(=O)CCC(=O)O)c1", "stereo": "stereo not drawn", "tested on / at": "CP201", "potency (µM)": "15.1", "curve as filed": "inhibitor, partial curve"}
{"compound": "COc1cccc(CCc2ccccc2OCC(CN(C)C)OC(=O)CCC(=O)O)c1", "stereo": "stereo not drawn", "tested on / at": "FAB9", "potency (µM)": "11.22", "curve as filed": "inhibitor, single point"}
{"compound": "COc1cccc(CCc2ccccc2OCC(CN(C)C)OC(=O)CCC(=O)O)c1", "stereo": "stereo not drawn", "tested on / at": "CP325", "potency (µM)": "6.746", "curve as filed": "inhibitor, partial curve, poor fit"}
{"compound": "COc1cccc(CCc2ccccc2OCC(CN(C)C)OC(=O)CCC(=O)O)c1", "stereo": "stereo not drawn", "tested on / at": "CP191", "potency (µM)": "14.13", "curve as filed": "inhibitor, single point"}
{"compound": "CCCCCCCCCC(CC)c1ccc(S(=O)(=O)O)cc1", "stereo": "stereo not drawn", "tested on / at": "CP266", "potency (µM)": "0.012", "curve as filed": "activator"}
{"compound": "CC(C)(C)NC[C@H](O)CSc1nc(-c2ccc(C(N)=O)s2)cs1", "tested on / at": "ICS", "potency (µM)": "17.78", "curve as filed": "inhibitor, single point"}
{"compound": "CC(C)(C)NC[C@H](O)CSc1nc(-c2ccc(C(N)=O)s2)cs1", "tested on / at": "DIV17", "potency (µM)": "16.94", "curve as filed": "inhibitor, single point"}
{"compound": "CC(C)(C)NC[C@H](O)CSc1nc(-c2ccc(C(N)=O)s2)cs1", "tested on / at": "7G8", "potency (µM)": "12.59", "curve as filed": "inhibitor, partial curve"}
{"compound": "Oc1ccc(Cl)c2cccnc12", "tested on / at": "parasite line B", "potency (µM)": "10", "curve as filed": "inhibitor, single point"}
{"compound": "Oc1ccc(Cl)c2cccnc12", "tested on / at": "3D7", "potency (µM)": "14.13", "curve as filed": "inhibitor, single point"}
{"compound": "Oc1ccc(Cl)c2cccnc12", "tested on / at": "HB3", "potency (µM)": "4.467", "curve as filed": "inhibitor, partial curve"}
{"compound": "NC(N)=NS(=O)(=O)c1ccc(N)cc1", "tested on / at": "ATS95", "potency (µM)": "10", "curve as filed": "inhibitor, single point"}
{"compound": "C[C@H]1CC[C@@H]2[C@@H](C)[C@H]3[C@H](C[C@H]4[C@@H]5CC=C6CC(O[C@@H]7O[C@H](CO)[C@H](O)[C@H](O[C@@H]8O[C@H](CO)[C@@H](O)[C@H](O)[C@H]8O)[C@H]7O[C@H]7O[C@@H](C)[C@H](O)[C@@H](O)[C@H]7O)CC[C@]6(C)[C@H]5CC[C@]34C)N2C1", "stereo": "stereo partly drawn", "tested on / at": "CP256", "potency (µM)": "3.981", "curve as filed": "inhibitor, single point"}
{"compound": "C=C(Nc1ccc(OCC)cc1)Nc1ccc(OCC)cc1", "tested on / at": "CP237", "potency (µM)": "10", "curve as filed": "inhibitor, single point"}
{"compound": "C=C(Nc1ccc(OCC)cc1)Nc1ccc(OCC)cc1", "tested on / at": "CP215", "potency (µM)": "19.01", "curve as filed": "inhibitor, single point"}
{"compound": "C=C(Nc1ccc(OCC)cc1)Nc1ccc(OCC)cc1", "tested on / at": "ICS", "potency (µM)": "12.59", "curve as filed": "inhibitor, single point"}
{"compound": "C=C(Nc1ccc(OCC)cc1)Nc1ccc(OCC)cc1", "tested on / at": "AS120", "potency (µM)": "3.981", "curve as filed": "inhibitor, single point"}
{"compound": "C=C(Nc1ccc(OCC)cc1)Nc1ccc(OCC)cc1", "tested on / at": "P94_40", "potency (µM)": "10", "curve as filed": "inhibitor, single point"}
{"compound": "CC(C)(S)[C@@H](N)C(=O)O", "tested on / at": "CP192", "potency (µM)": "0.0005", "curve as filed": "activator"}
{"compound": "CNNCc1ccc(C(=O)NC(C)C)cc1", "tested on / at": "ICS", "potency (µM)": "11.22", "curve as filed": "inhibitor, partial curve"}

The last 2 entries again:

Compound,tested on / at,potency (µM),curve as filed
CC(C)(S)[C@@H](N)C(=O)O,CP192,0.0005,activator
CNNCc1ccc(C(=O)NC(C)C)cc1,ICS,11.22,"inhibitor, partial curve"